# Percent effect of library compounds

Amino acid sequences for entries named in this document (tags omitted).
UniProt P9WPC5, whole entry: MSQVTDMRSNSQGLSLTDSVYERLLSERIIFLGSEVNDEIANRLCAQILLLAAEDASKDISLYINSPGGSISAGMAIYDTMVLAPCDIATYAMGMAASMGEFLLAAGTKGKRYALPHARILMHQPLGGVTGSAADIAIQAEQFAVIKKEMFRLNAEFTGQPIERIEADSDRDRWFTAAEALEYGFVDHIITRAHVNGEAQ
UniProt P9WPC3, whole entry partner: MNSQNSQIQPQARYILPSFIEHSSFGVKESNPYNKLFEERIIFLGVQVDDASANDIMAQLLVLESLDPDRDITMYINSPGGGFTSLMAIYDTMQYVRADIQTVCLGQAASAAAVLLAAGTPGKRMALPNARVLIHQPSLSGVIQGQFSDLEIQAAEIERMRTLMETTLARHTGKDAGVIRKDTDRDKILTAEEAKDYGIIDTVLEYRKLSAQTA

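ClpP1P2, Mycobacterium tuberculosis (UniProt P9WPC5 and UniProt P9WPC3). Protease assay of ClpP1P2, read by the AMC dye that it sets free. Compounds at 50 µM. Direction is inferred from only a few compounds that gave an IC50; most scored high, so higher reads as stronger inhibition. Most other retested compounds had strongly negative values. Size under these conditions: about 69,000 compounds, about 10 of them at 50% or above in at least one test.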

Values are the deposited “Percent Effect”, in %. The controls that fix the scale are not given in the record; negative values are as filed. This is an unselected part of the compounds tested. Two or more numbers in one place are separate tests of the same structure; such repeats can differ widely.

compound	effect
Cc1noc(-c2cccnc2N(C)Cc2cc(C)on2)n1	-33.99%
Cn1cccc1C(=O)NCc1cn2c(n1)CN(Cc1cccnc1)CC2	1.465%
CCN1CCN(c2ccc(C(=O)NCCn3ccnc3)cc2F)CC1	-10.18%
CCCc1nc(CN2CCCC2Cn2cncn2)cs1 (stereo not shown)	-0.8296%
COc1cccc(-c2cc(C(=O)N3N=C(C)CC3(O)C(F)F)[nH]n2)c1 (stereo not shown)	-11.32%
O=C(COCC(=O)N1CCCCCC1)NCc1cccc(Br)c1	-20.29%
Cn1cc(CN2CC[C@H]3CO[C@H](CNc4ncccn4)[C@H]3C2)cn1	16.58%
Cc1n[nH]c(C)c1NC(=O)CN1CCCC1c1c(C)nn(C)c1C (stereo not shown)	-30.88%
Cc1c(CN2CCCC(C(=O)c3ccccc3)C2)cc(C#N)n1C (stereo not shown)	-3.837%
Cc1n[nH]cc1CNC(=O)[C@H]1CCCCN1C(=O)OC(C)(C)C	-3.554%
CC(c1cc(F)ccc1F)N1CCN(Cc2nccn2C)CC1 (stereo not shown)	-22.1%
CN(C)C(=O)NC1COC2(CCN(Cc3ccccc3)CC2)C1 (stereo not shown)	-1.529%
COCC(C)NC(=O)c1cn(C(C)(C)C)c2ncccc12 (stereo not shown)	14.37%
CN(CCS(=O)(=O)c1cc(Cl)ccc1Cl)CC(=O)Nc1ccc(F)cc1	-7.193%
O=C(CCc1ccsc1)N1CCCC(N2CCNC2=O)C1 (stereo not shown)	-3.845%
Cc1nc(C)n(CC2CCCN(Cc3nc(-c4ccco4)no3)C2)n1 (stereo not shown)	-3.102%
CC(=O)Nc1ccc(CNc2ccn(Cc3ccccc3)n2)cc1	-16.99%
CS(=O)(=O)NCC1CCCN(Cc2ccccc2F)C1 (stereo not shown)	-5.695%
CN(Cc1ccco1)C1CCC12CCN(C(=O)C1CCOCC1)CC2 (stereo not shown)	-3.748%
CC1=Nc2c(c(=O)[nH]n2C2CCCC2)C(c2cccnc2)S1 (stereo not shown)	0.4015% & 8.303%
COc1c(NC(=O)N(C)CCOc2ccc(F)cc2)c(C)nn1C	-18.3%
CCc1cc(C(=O)N2CCCC(c3cc(=O)nc4n3CCC4)C2)no1 (stereo not shown)	1.687%
COc1ccc([C@@H]2CN(C(=O)CCCc3cn[nH]c3)C[C@H]2N(C)C)cc1	-7.371%
CCNC(=O)c1ccc(NC(=O)N(C)Cc2cc(C)on2)c(C)c1	-13.86%
COc1ccc(NC(=O)Cn2nc(C)c(C)cc2=O)c(OC)c1	-13.98%
O=C(Nc1cccnc1)[C@H]1C[C@H]2OCC[C@H]2N(C(=O)c2ccsc2)C1	4.55%
CC(C)n1nnnc1-c1ccc(NC(=O)N(C)CCN(C)C)cc1F	-3.673%
Cc1nc(CNC(=O)c2oc3ccccc3c2CN(C)C)oc1C	0.6738%
CNc1nc2c(s1)C(c1cc(Cl)ccc1F)CC(=O)N2 (stereo not shown)	-189.7%
CC[C@@]1(O)CCN(C(=O)c2ccc(OC(F)F)cc2)C[C@H]1O	-20.85%
Fc1ccccc1CN1CCCN(c2ncnc3[nH]ccc23)CC1	-8.582%
COc1ccc(C(=O)N2CCN(c3cc(CCN)nc(C)n3)CC2)cc1	-6.012%
O=C(O)c1csc(S(=O)(=O)N2CCN(Cc3ccc(Cl)cc3)CC2)c1	9.166%
CNC(=O)[C@H]1CCS(=O)(=O)[C@@H]2CN(Cc3ccc(OC)cc3)C[C@H]12	-2.703%
Cc1occc1C(=O)Nc1cccc(C(=O)OCC2CCCN2)c1 (stereo not shown)	-4.862%
Cc1cccc(OCC(=O)N(Cc2ccncc2)C2CC2)c1	-1.412%
COc1ccc(CC(=O)N2CCCN(c3ccc(C#N)cc3)CC2)cc1	-2.493%
O=C(O)c1nnn(-c2ccc(Cl)c(C(F)(F)F)c2)c1-c1ccncc1	-8.774%
NC(=O)NC(CC(=O)NCCc1cccc(F)c1)c1ccccc1 (stereo not shown)	1.659%
CCCc1n[nH]c(C2CN(C(=O)CCc3cscn3)CCO2)n1 (stereo not shown)	-19.95%
CC(C)=CCN1CCN(C(=O)C2CCS(=O)(=O)C2)CC1 (stereo not shown)	4.352%
CC(Cn1cccn1)C(=O)N1CCC(NS(C)(=O)=O)CC1 (stereo not shown)	2.609%
Cc1ccc(CNC(C)c2ccc(N3CCN(C)CC3)c(F)c2)o1 (stereo not shown)	0.5782%
COCCCN1C(=O)CC[C@H]2CN(c3cc(C(N)=O)ccn3)CC[C@H]21	-45.51%
CN(Cc1ccc(N(C)C)cc1)C(=O)NCc1nnc2n1CCC2	-4.597%
Cc1nnc(NC(=O)NCC(C)N2CCOCC2)s1 (stereo not shown)	2.828%
COc1cnc(N2CCN(C)CC2)nc1-c1ccnn1C	-1038%
O=S(=O)(CCN1CCCCC1Cn1cccn1)c1ccccc1 (stereo not shown)	-17.27%
Cc1cc(-n2c(C)cn(CN(C)Cc3ccccc3)c2=O)no1	-2.761%
OC(COCc1ccccc1)CSc1nnc2ccccn12 (stereo not shown)	-9.344%
Cc1cnn(CCNCc2nnc(-c3occc3C)o2)c1	-0.1561%
CCOC(=O)C1CCN(C(=O)CN2CCCC2Cc2ccccc2)CC1 (stereo not shown)	-8.614%
CCC(=O)Nc1cccc(OCC(=O)N(C)Cc2nccn2CC)c1	-3.488%
CN1CCC(Cc2noc(-c3cccc4c3OCC4)n2)CC1	-18.16%
CC(C)(C)c1ccc(S(=O)(=O)CCNC(=O)c2cnccn2)cc1	-3.382%

Repeated from the top, 7 entries:

compound,effect
Cc1noc(-c2cccnc2N(C)Cc2cc(C)on2)n1,-33.99%
Cn1cccc1C(=O)NCc1cn2c(n1)CN(Cc1cccnc1)CC2,1.465%
CCN1CCN(c2ccc(C(=O)NCCn3ccnc3)cc2F)CC1,-10.18%
CCCc1nc(CN2CCCC2Cn2cncn2)cs1 (stereo not shown),-0.8296%
COc1cccc(-c2cc(C(=O)N3N=C(C)CC3(O)C(F)F)[nH]n2)c1 (stereo not shown),-11.32%
O=C(COCC(=O)N1CCCCCC1)NCc1cccc(Br)c1,-20.29%
Cn1cc(CN2CC[C@H]3CO[C@H](CNc4ncccn4)[C@H]3C2)cn1,16.58%

Source: ChEMBL document CHEMBL3988442, “University of Dundee, Small-Polar-MMV Screening Library” (2021).